Source: the supplement of paper PMC3334620
The full ranking holds about 33,000 sequences; the median of “E-score (-0.5 to 0.5)” is about -8e-05, and the highest 2% start at about 0.23. This is one part of the list.

Target: T1, Nrg2 (UniProt P38082)
T1 sequence: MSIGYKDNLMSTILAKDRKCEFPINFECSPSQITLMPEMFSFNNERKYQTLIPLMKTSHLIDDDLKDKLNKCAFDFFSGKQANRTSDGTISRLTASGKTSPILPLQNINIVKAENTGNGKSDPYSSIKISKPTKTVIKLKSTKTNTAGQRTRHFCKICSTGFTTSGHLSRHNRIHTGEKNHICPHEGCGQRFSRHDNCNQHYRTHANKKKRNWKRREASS
Test: PBM E-score (8-mer binding enrichment) (E-score (-0.5 to 0.5)); higher = stronger / more preferred TF binding
Conditions: protein concentration: 100 nM; construct: GST-full length
Summary of the method: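 Full-length yeast transcription factors or their DNA-binding domains, GST-tagged and expressed with PURExpress, were applied at about 100-200 nM to universal all-10-mer Agilent arrays. These arrays had been made double-stranded by primer extension on fresh or once-stripped slides. Detection used fluorescent anti-GST, normalisation used masliner, and E-scores for ungapped eight-base words pooled with reverse complements came from the Universal PBM Analysis Suite.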

Q: With CACTACGC as the sequence, how does the “PBM E-score” value read?
A: The value was -0.241.

Q: How did the “PBM E-score” value turn out when GAGCAAAA was run?
A: Its value is -0.0339.

Q: Which “PBM E-score” value does the source give for CTCCCTCC here?
A: The value was -0.122.

Q: How did the “PBM E-score” value turn out when CAACTGCG was run?
A: The value was -0.0485.

Q: Which “PBM E-score” value does the source give for TGACTACA here?
A: Its value is -0.154.

Q: With AACCATAC as the sequence, how does the “PBM E-score” value read?
A: The value was -0.0969.

Q: How did the “PBM E-score” value turn out when ACATTCGG was run?
A: The value was -0.0241.

Q: Which “PBM E-score” value does the source give for GAACAGCC here?
A: The value was -0.0894.

Q: How did the “PBM E-score” value turn out when CAGGTAGG was run?
A: Its value is -0.0897.

Q: AGAGTCAC was tested. Which “PBM E-score” value did it give?
A: The value was -0.0604.

Q: ACTAGTAA was tested. Which “PBM E-score” value did it give?
A: Its value is 0.036.

Q: CACTTGGA was tested. Which “PBM E-score” value did it give?
A: Its value is 0.0538.

Q: Which “PBM E-score” value does the source give for AGGCCCTA here?
A: Its value is -0.021.

Q: With AGATACTA as the sequence, how does the “PBM E-score” value read?
A: Its value is 0.0761.

Q: How did the “PBM E-score” value turn out when GACTGAAA was run?
A: The value was 0.0848.

Q: With AGCCATCA as the sequence, how does the “PBM E-score” value read?
A: The value was -0.00157.

Q: Which “PBM E-score” value does the source give for CGAAAACC here?
A: Its value is 0.065.

Q: With CGTTAACC as the sequence, how does the “PBM E-score” value read?
A: The value was 0.0372.

Q: With AATATTAT as the sequence, how does the “PBM E-score” value read?
A: The value was 0.219.

Q: Which “PBM E-score” value does the source give for TCTAGGAA here?
A: The value was -0.126.

Q: For GAGAAAGA, which “PBM E-score” value is on record?
A: Its value is 0.105.

Q: Which “PBM E-score” value does the source give for CTAAGTCA here?
A: The value was -0.11.

Q: GGTTGGCA was tested. Which “PBM E-score” value did it give?
A: Its value is -0.0674.

Q: CATTCGTC was tested. Which “PBM E-score” value did it give?
A: The value was 0.138.

Q: Which “PBM E-score” value does the source give for AATTCGCC here?
A: The value was 0.167.

Q: GCGGGCAA was tested. Which “PBM E-score” value did it give?
A: Its value is 0.0596.

Q: Which “PBM E-score” value does the source give for ATAGCTGC here?
A: Its value is 0.085.

Q: CCCGAGAG was tested. Which “PBM E-score” value did it give?
A: The value was -0.356.

Q: With CCCAACTA as the sequence, how does the “PBM E-score” value read?
A: Its value is 0.174.

Q: For CTACGTGA, which “PBM E-score” value is on record?
A: The value was -0.172.

Q: For ATGATCCA, which “PBM E-score” value is on record?
A: The value was -0.114.

Q: How did the “PBM E-score” value turn out when ACTACGTA was run?
A: The value was 0.0132.

Q: How did the “PBM E-score” value turn out when CCCATCTA was run?
A: The value was 0.103.

Q: Which “PBM E-score” value does the source give for ACACCATA here?
A: The value was -0.0575.

Q: How did the “PBM E-score” value turn out when GCGTTTGA was run?
A: The value was -0.0923.

Q: How did the “PBM E-score” value turn out when AATATTGT was run?
A: Its value is 0.168.

Q: AGCATATC was tested. Which “PBM E-score” value did it give?
A: The value was 0.0744.

Q: Which “PBM E-score” value does the source give for TAACCATA here?
A: Its value is -0.0752.

Q: For AATCTAAC, which “PBM E-score” value is on record?
A: Its value is 0.0101.

Q: How did the “PBM E-score” value turn out when AGCGCTAC was run?
A: The value was -0.0916.

Q: How did the “PBM E-score” value turn out when CTGCCATA was run?
A: The value was 0.139.

Q: With AAAGAGGG as the sequence, how does the “PBM E-score” value read?
A: The value was -0.136.

Q: Which “PBM E-score” value does the source give for TGGATCCA here?
A: The value was -0.0711.

Q: With GGCGAAAC as the sequence, how does the “PBM E-score” value read?
A: Its value is 0.0468.

Q: Which “PBM E-score” value does the source give for GTAGATGA here?
A: The value was 0.0203.

Q: Which “PBM E-score” value does the source give for AGTGTTAT here?
A: The value was 0.0152.

Q: For AATCTTAG, which “PBM E-score” value is on record?
A: Its value is 0.032.

Q: How did the “PBM E-score” value turn out when ATTTGCGC was run?
A: Its value is -0.00718.

Q: Which “PBM E-score” value does the source give for GATCCCAC here?
A: The value was 0.218.

Q: With CTCTACTA as the sequence, how does the “PBM E-score” value read?
A: Its value is 0.0431.

Q: For ATACAGGG, which “PBM E-score” value is on record?
A: The value was 0.274.

Q: For CAGTCTCG, which “PBM E-score” value is on record?
A: Its value is -0.205.

Q: How did the “PBM E-score” value turn out when ATACGCGA was run?
A: The value was 0.0467.

Q: Which “PBM E-score” value does the source give for CCGATGCA here?
A: The value was 0.0174.

Q: With AATACGAT as the sequence, how does the “PBM E-score” value read?
A: The value was 0.0129.

Q: Which “PBM E-score” value does the source give for GTTGGCGA here?
A: Its value is -0.00348.

Q: Which “PBM E-score” value does the source give for CCGGATCA here?
A: Its value is 0.0095.

Q: GATAGCGA was tested. Which “PBM E-score” value did it give?
A: The value was 0.0325.

Q: For CCTGTGCC, which “PBM E-score” value is on record?
A: The value was 0.0181.

Q: Which “PBM E-score” value does the source give for CTGGTCCA here?
A: The value was 0.00447.

Q: With ATACCGCA as the sequence, how does the “PBM E-score” value read?
A: Its value is 0.00689.

Q: With CTCAGGCA as the sequence, how does the “PBM E-score” value read?
A: The value was 0.117.

Q: With AGAAGAAG as the sequence, how does the “PBM E-score” value read?
A: Its value is -0.043.

Q: For CCAGCTAG, which “PBM E-score” value is on record?
A: Its value is 0.0216.

Q: GCCGCAAC was tested. Which “PBM E-score” value did it give?
A: Its value is 0.192.

Q: How did the “PBM E-score” value turn out when ATACAGAG was run?
A: Its value is -0.113.

Q: GGTGCCCA was tested. Which “PBM E-score” value did it give?
A: Its value is -0.0202.

Q: For ATCAACGC, which “PBM E-score” value is on record?
A: The value was -0.0247.

Q: AGTACGTG was tested. Which “PBM E-score” value did it give?
A: Its value is -0.0446.

Q: How did the “PBM E-score” value turn out when AAAATCCC was run?
A: Its value is -0.0572.

Q: GCTGACAA was tested. Which “PBM E-score” value did it give?
A: Its value is 0.0114.

Q: With CTTGCAAC as the sequence, how does the “PBM E-score” value read?
A: The value was 0.124.

Q: For AAGCCTGA, which “PBM E-score” value is on record?
A: Its value is -0.148.

Q: With GTACTAGA as the sequence, how does the “PBM E-score” value read?
A: Its value is -0.00429.

Q: Which “PBM E-score” value does the source give for ACTTACAG here?
A: Its value is -0.0568.

Q: CGCGGTCA was tested. Which “PBM E-score” value did it give?
A: The value was 0.0772.

Q: GAACCTAC was tested. Which “PBM E-score” value did it give?
A: Its value is -0.131.

Q: How did the “PBM E-score” value turn out when ACATCGGG was run?
A: The value was -0.0174.

Q: With ACTTAGTA as the sequence, how does the “PBM E-score” value read?
A: The value was 0.0817.

Q: For GCCCGAAC, which “PBM E-score” value is on record?
A: Its value is 0.0691.

Q: How did the “PBM E-score” value turn out when ACTCCGTC was run?
A: The value was -0.041.

Q: With AAGTGGGA as the sequence, how does the “PBM E-score” value read?
A: The value was 0.173.

Q: CTCTCGGC was tested. Which “PBM E-score” value did it give?
A: The value was 0.00764.

Q: With CCTCAACC as the sequence, how does the “PBM E-score” value read?
A: Its value is -0.234.

Q: AGCTAGCC was tested. Which “PBM E-score” value did it give?
A: The value was -0.0348.

Q: Which “PBM E-score” value does the source give for GGAAGGAA here?
A: Its value is -0.00882.
